Assay results as given in patent US12122759 (dated 2024).

Experiment: peptide synthesis
Conditions: for cyclisation yield: cyclisation step

## (3S,6R,9S,12R,15S,18R,21S,24R)-3,9,15,21-tetraisobutyl-4,6,10,16,18,22-hexamethyl-12,24-bis(4-morpholinobenzyl)-1,7,13,19-tetraoxa-4,10,16,22-tetraazacyclotetracosan-2,5,8,11,14,17,20,23-octaone
2 steps (TAGa cleavage + cyclisation), run 1
  cyclisation yield: 46% for 2 steps
2 steps (TAGa cleavage + cyclisation), run 2
  cyclisation yield: 44% for 2 steps
Run 1
  cyclisation yield: 51.3%
Run 2
  cyclisation yield: 88%
Late stage modification step, run 1
  step yield: 100%
Late stage modification step, run 2
  step yield: 94%

## (6S,9R,12S,15R)-6,12-diisobutyl-2,2,5,11,15-pentamethyl-9-(4-morpholinobenzyl)-4,7,10,13-tetraoxo-3,8,14-trioxa-5,11-diazahexadecan-16-oic acid
Late stage modification step
  step yield: 98.0%

## (R)-1-(benzyloxy)-1-oxopropan-2-yl N-((2R,5S,8R,11S,14R,17S)-5,11-diisobutyl-6,8,12,19-tetramethyl-17-(methylamino)-2,14-bis(4-morpholinobenzyl)-4,7,10,13,16-pentaoxo-3,9,15-trioxa-6,12-diazaicosanoyl)-N-methyl-L-leucinate
Late stage modification step
  step yield: 90.1%

## (R)-1-(benzyloxy)-1-oxopropan-2-yl N-methyl-N-((6S,9R,12S,15R,18S,21R)-6,12,18-triiso-butyl-2,2,5,11,15,17-hexamethyl-9,21-bis(4-morpholinobenzyl)-4,7,10,13,16,19-hexaoxo-3,8,14,20-tetraoxa-5,11,17-triazadocosan-22-oyl)-L-leucinate
Coupling step
  step yield: 83.4%

## (R)-1-(benzyloxy)-1-oxopropan-2-yl N—((R)-2-((N-(tert-butoxycarbonyl)-N-methyl-L-leucyl)oxy)-3-(4-morpholinophenyl)propanoyl)-N-methyl-L-leucinate
Coupling step
  step yield: 97.4%

## (R)-1-(benzyloxy)-1-oxopropan-2-yl-N-methyl-N—((R)-2-((methyl-L-leucyl)oxy)-3-(4-morphol-inophenyl)propanoyl)-L-leucinate
Late stage modification step
  step yield: 89.9%

## N-MeLeu-D-Lac-N-MeLeu-D-PhLac-N-MeLeu-D-Lac-N-MeLeu-D-PhLac-O-TAGa
Late stage modification step
  step yield: 100%

## N-MeLeu-D-PhLac-N-MeLeu-D-Lac-N-MeLeu-D-PhLac-N-MeLeu-D-LacO-TAGa
Late stage modification step
  step yield: 98%
